Results taken from publication PMC8824340.
Results are given in words; binding and its absence hold for the method and conditions named. Some entries that bind do so weakly or less than the wild type.

By UniProt entry, the sequences of proteins in these tests, tags left out. Residues count along the entry.
UniProt P23201, residues 1-200: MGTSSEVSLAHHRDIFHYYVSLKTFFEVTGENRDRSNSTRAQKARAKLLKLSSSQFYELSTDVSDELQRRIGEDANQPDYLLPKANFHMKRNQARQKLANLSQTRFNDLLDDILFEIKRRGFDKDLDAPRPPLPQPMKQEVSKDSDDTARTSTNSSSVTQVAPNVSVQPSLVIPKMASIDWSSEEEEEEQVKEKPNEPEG

Columns and labels:
[1] = molecular target: T1, Msb4 N-terminal region (1-144), Spa2 interaction domain (S. cerevisiae) (UniProt Q12317); test: two-hybrid; N-terminal regions of Spa2 (1-200), Msb3 (1-220) and Msb4 (1-144); beta-galactosidase activity in Miller units, 3 experiments
T1 sequence: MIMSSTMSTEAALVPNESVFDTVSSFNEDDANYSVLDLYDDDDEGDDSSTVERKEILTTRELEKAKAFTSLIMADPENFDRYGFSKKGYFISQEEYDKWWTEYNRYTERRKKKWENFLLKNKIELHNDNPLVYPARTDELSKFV

[2] = molecular target: T2, Msb3 N-terminal region (1-220), Spa2 interaction domain (S. cerevisiae) (UniProt P48566); test: as above
T2 sequence: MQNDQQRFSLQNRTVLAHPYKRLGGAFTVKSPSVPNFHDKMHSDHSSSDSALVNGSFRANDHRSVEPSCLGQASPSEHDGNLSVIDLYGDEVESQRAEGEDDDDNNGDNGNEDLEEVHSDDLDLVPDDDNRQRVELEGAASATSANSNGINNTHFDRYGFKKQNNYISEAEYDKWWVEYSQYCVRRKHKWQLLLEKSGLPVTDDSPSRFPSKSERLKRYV

## Spa2 N-terminal region (1-200), wild-type SHD (from UniProt P23201 1-200) (domain or fragment)
[1]
  binding: binds
[2]
  binding: binds
